From doi:10.1101/2024.08.18.608437
No constants are given. Whether binding was seen depends on the method and setting. In cells and extracts the contact can be indirect. Some binding calls cover weakened binding; strength is not graded here.

Biological target: T1, MRE11 (UniProt P49959)
T1 sequence: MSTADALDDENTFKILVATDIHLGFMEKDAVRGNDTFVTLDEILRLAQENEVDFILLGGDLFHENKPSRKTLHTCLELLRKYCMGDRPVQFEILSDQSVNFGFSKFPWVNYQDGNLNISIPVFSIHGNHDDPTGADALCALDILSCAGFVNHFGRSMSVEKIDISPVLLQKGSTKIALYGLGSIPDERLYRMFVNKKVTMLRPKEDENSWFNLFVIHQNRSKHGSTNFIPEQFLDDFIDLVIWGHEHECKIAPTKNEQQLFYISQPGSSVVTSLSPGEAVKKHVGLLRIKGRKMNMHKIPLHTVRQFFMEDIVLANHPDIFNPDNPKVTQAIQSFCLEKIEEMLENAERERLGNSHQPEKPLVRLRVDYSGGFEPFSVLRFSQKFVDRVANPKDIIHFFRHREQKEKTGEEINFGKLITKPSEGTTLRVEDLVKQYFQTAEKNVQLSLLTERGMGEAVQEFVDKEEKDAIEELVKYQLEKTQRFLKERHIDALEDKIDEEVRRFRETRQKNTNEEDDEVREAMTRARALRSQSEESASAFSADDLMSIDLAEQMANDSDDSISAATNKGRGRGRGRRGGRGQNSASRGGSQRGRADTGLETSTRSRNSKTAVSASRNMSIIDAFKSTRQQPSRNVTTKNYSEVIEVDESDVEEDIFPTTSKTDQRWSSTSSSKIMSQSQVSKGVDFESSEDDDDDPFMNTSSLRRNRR
Test: co-IP

binding: binds
B1: DNA polymerase kappa (protein, UniProt Q9UBT6 1-870)
chain: MDSTKEKCDSYKDDLLLRMGLNDNKAGMEGLDKEKINKIIMEATKGSRFYGNELKKEKQVNQRIENMMQQKAQITSQQLRKAQLQVDRFAMELEQSRNLSNTIVHIDMDAFYAAVEMRDNPELKDKPIAVGSMSMLSTSNYHARRFGVRAAMPGFIAKRLCPQLIIVPPNFDKYRAVSKEVKEILADYDPNFMAMSLDEAYLNITKHLEERQNWPEDKRRYFIKMGSSVENDNPGKEVNKLSEHERSISPLLFEESPSDVQPPGDPFQVNFEEQNNPQILQNSVVFGTSAQEVVKEIRFRIEQKTTLTASAGIAPNTMLAKVCSDKNKPNGQYQILPNRQAVMDFIKDLPIRKVSGIGKVTEKMLKALGIITCTELYQQRALLSLLFSETSWHYFLHISLGLGSTHLTRDGERKSMSVERTFSEINKAEEQYSLCQELCSELAQDLQKERLKGRTVTIKLKNVNFEVKTRASTVSSVVSTAEEIFAIAKELLKTEIDADFPHPLRLRLMGVRISSFPNEEDRKHQQRSIIGFLQAGNQALSATECTLEKTDKDKFVKPLEMSHKKSFFDKKRSERKWSHQDTFKCEAVNKQSFQTSQPFQVLKKKMNENLEISENSDDCQILTCPVCFRAQGCISLEALNKHVDECLDGPSISENFKMFSCSHVSATKVNKKENVPASSLCEKQDYEAHPKIKEISSVDCIALVDTIDNSSKAESIDALSNKHSKEECSSLPSKSFNIEHCHQNSSSTVSLENEDVGSFRQEYRQPYLCEVKTGQALVCPVCNVEQKTSDLTLFNVHVDVCLNKSFIQELRKDKFNPVNQPKESSRSTGSSSGVQKAVTRTKRPGLMTKYSTSKKIKPNNPKHTLDIFFK
